# Test results reported in publication PMC4741582.
# Amino acid sequences for entries named in this document (tags omitted). A change or cut given only in a name is not applied to a line headed by its entry. Chains listed by the source or under a name are the forms on record and can include a tag or linker. Residues count along the entry.
# UniProt P40763: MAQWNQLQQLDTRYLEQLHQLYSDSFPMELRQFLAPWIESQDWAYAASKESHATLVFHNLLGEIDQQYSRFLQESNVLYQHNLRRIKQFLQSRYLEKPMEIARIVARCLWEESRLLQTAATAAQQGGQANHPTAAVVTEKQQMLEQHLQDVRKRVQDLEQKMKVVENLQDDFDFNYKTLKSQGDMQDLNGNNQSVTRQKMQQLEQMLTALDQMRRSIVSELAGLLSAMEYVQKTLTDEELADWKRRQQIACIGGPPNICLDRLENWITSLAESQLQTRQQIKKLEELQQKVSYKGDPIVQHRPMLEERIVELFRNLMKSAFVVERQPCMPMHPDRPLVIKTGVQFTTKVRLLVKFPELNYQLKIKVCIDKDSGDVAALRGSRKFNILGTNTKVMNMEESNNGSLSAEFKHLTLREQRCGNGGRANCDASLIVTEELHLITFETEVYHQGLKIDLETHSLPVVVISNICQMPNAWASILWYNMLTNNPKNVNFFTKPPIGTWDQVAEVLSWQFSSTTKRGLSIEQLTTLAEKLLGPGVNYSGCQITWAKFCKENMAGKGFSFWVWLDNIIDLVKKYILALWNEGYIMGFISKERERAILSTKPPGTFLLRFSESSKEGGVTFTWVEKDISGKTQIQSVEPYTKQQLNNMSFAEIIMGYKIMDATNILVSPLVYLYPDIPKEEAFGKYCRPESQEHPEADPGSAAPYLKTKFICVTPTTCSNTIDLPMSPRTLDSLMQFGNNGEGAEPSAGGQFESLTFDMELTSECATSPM
# Flag-tagged STAT3 N-terminus fragment 1-475aa: residues 1-475 of P40763
# Flag-tagged STAT3 C-terminus fragment 476-770aa: residues 476-770 of P40763
# UniProt P07355: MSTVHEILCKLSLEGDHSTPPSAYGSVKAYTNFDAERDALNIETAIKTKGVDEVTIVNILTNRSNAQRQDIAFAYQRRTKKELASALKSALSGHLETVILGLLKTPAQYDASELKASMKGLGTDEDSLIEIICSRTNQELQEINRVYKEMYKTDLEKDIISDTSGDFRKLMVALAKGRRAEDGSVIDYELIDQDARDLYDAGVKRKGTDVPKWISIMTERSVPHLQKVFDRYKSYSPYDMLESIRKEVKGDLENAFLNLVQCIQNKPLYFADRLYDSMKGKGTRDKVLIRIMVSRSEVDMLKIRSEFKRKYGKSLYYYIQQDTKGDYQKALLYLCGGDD
# Results are given in words; binding and its absence hold for the method and conditions named. For some of these results: In cells and extracts the contact can be indirect. Some entries that bind do so weakly or less than the wild type.
# Experiments:
# [1] = biological target: Flag-tagged STAT3 N-terminus fragment 1-475aa (human) (UniProt P40763); assay: co-IP; HEK293T co-transfected with Flag-tagged STAT3 and GFP-tagged Anxa2 constructs, 48 h; lysates incubated with anti-Flag beads at 4°C overnight; blots with anti-Flag or anti-GFP
# [2] = biological target: Flag-tagged full length STAT3 (human) (UniProt P40763); assay: as above
# [3] = biological target: Flag-tagged STAT3 C-terminus fragment 476-770aa (human) (UniProt P40763); assay: as above
# [4] = biological target: STAT3, endogenous (human (endogenous in T47D)) (UniProt P40763); assay: co-IP; endogenous proteins in T47D lysate; cells serum-starved, with or without EGF for 72 h; precipitated with mouse anti-Anxa2 (protein G-agarose) or rabbit anti-STAT3 (protein A-agarose); normal IgG as negative control
# [5] = biological target: N-terminal domain of STAT3 (1-475) in pFN11A (BIND) vector (human) (UniProt P40763); assay: two-hybrid; CheckMate/Flexi Vector Mammalian Two-Hybrid System in 293T cells; STAT3 in pFN11A (BIND), Anxa2 in pFN10A (ACT), pGL4.31 reporter; relative Luc/Ren after 48 h
# [6] = biological target: C-terminal domain of STAT3 (476-770) in pFN11A (BIND) vector (human) (UniProt P40763); assay: as above
# [7] = biological target: full length STAT3 in pFN11A (BIND) vector (human) (UniProt P40763); assay: as above
# [8] = biological target: annexin A2 (Anxa2), endogenous (human (endogenous in T47D)) (UniProt P07355); assay: co-IP; endogenous proteins in T47D lysate; cells serum-starved, with or without EGF for 72 h; precipitated with mouse anti-Anxa2 (protein G-agarose) or rabbit anti-STAT3 (protein A-agarose); normal IgG as negative control
Substance,binding [1],binding [3],binding [6],further results
GFP-tagged full length Anxa2 (from UniProt P07355 1-339),binds,binds,–,–
"annexin A2 (Anxa2), endogenous (from UniProt P07355 1-339)",–,–,–,binding [4]: binds
full length Anxa2 in pFN10A (ACT) vector (from UniProt P07355 1-339),–,–,binds,binding [7]: binds
"STAT3, endogenous (from UniProt P40763 1-770)",–,–,–,binding [8]: binds

# More lines, main results first:
binding [1],binding [3],binding [6],Substance,further results
binds,binds,–,GFP-tagged Anxa2 N-terminus fragment 1-92aa (from UniProt P07355 1-92) (domain or fragment),binding [2]: binds
–,–,binds,C-terminal fragment of Anxa2 (93-339) in pFN10A (ACT) vector (from UniProt P07355 93-339) (domain or fragment),binding [5]: no binding
–,–,binds,N-terminal fragment of Anxa2 (1-92) in pFN10A (ACT) vector (from UniProt P07355 1-92) (domain or fragment),binding [5]: binds
no binding,binds,–,GFP-tagged Anxa2 C-terminus fragment 93-339aa (from UniProt P07355 93-339) (domain or fragment),binding [2]: binds
